At least one peptide structure holds a part that was inferred or is arguable (an end, a ring closure or a residue). Residues, ends and D or L forms follow the SMILES beside them.
Test system: PBMCs isolated from prostate cancer patients
Experiment: Interferon-gamma ELISPOT of PBMCs from prostate cancer patients with PSA peptides
Format: cell-based, human
Conditions: n=10 prostate cancer patients; 40 hours incubation

With `CC[C@H](C)[C@H](NC(=O)[C@H](CS)NC(=O)[C@H](Cc1c[nH]cn1)NC(=O)[C@H](C)NC(=O)[C@H](C)NC(=O)[C@@H](NC(=O)[C@H](CC(C)C)NC(=O)[C@@H](NC(=O)[C@H](Cc1c[nH]c2ccccc12)NC(=O)[C@H](CCC(N)=O)NC(=O)[C@@H]1CCCN1C(=O)[C@H](Cc1c[nH]cn1)NC(=O)[C@@H](NC(=O)[C@H](CC(C)C)NC(=O)[C@@H](NC(=O)CNC(=O)CNC(=O)[C@H](CS)NC(=O)[C@@H](NC(=O)[C@H](C)NC(=O)[C@H](CCCNC(=N)N)NC(=O)CNC(=O)[C@H](CCCNC(=N)N)NC(=O)[C@H](CO)NC(=O)[C@H](C)NC(=O)[C@@H](NC(=O)[C@H](CC(C)C)NC(C)=O)C(C)C)C(C)C)C(C)C)C(C)C)C(C)C)[C@@H](C)O)C(=O)N[C@@H](CCCNC(=N)N)C(=O)N[C@@H](CC(N)=O)C(=O)N[C@@H](CCCCN)C(=O)N[C@@H](CO)C(=O)N[C@H](C(=O)N[C@H](C(=O)N[C@@H](CC(C)C)C(=O)N[C@@H](CC(C)C)C(=O)NCC(=O)N[C@@H](CCCNC(=N)N)C(=O)N[C@@H](Cc1c[nH]cn1)C(=O)N[C@@H](CO)C(=O)N[C@@H](CC(C)C)C(N)=O)[C@@H](C)CC)C(C)C` [PSA 41-80, LVASRGRAVCGGVLVHPQWVLTAAHCIRNKSVILLGRHSL] (Ac-LVASRGRAVCGGVLVHPQWVLTAAHCIRNKSVILLGRHSL-NH2; N-terminus and C-terminus assumed) the “Number of patients with positive ELISPOT response (average SFU at least twice no-peptide control)” value was “two”.

From US20180028627A1, “TREATMENT VACCINE FOR PROSTATE CANCER” (Bioventures, LLC, priority 2015, published 2018)
